Library screen at single concentrations

Chains of the proteins cited; added tags and fusions are not shown. Residues count along the entry.
UniProt Q4DA54, 1-478: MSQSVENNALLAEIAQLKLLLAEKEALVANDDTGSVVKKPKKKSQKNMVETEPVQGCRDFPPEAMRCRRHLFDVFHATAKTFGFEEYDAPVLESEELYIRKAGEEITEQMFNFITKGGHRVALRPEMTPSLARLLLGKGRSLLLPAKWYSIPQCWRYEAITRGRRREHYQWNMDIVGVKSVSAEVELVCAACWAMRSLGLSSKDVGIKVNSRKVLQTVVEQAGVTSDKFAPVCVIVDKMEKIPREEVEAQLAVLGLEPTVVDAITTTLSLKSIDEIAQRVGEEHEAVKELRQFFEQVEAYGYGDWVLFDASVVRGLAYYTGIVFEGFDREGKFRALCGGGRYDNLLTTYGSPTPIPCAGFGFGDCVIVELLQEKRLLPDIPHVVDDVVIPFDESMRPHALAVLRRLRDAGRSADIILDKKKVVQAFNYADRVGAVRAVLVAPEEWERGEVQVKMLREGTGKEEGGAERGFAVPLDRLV
UniProt P9WNZ1, whole entry: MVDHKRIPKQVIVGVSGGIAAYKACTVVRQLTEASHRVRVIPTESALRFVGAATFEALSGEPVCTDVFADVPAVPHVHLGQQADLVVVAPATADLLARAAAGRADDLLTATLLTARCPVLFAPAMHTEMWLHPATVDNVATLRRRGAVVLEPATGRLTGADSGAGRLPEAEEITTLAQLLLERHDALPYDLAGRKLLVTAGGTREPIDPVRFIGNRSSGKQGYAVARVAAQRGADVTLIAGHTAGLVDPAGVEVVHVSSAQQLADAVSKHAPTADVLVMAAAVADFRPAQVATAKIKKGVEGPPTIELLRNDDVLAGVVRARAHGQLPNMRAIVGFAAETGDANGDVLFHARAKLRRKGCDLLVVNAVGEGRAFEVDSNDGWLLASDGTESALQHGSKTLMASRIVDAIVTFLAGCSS

The values are deposited in ChEMBL (CHEMBL3988442, “University of Dundee, Small-Polar-MMV Screening Library” (2021)).

TcHisRS: 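Histidine-tRNA ligase, Trypanosoma cruzi CL Brener (UniProt Q4DA54). Enzyme assay of histidyl-tRNA synthetase; the read-out is not stated. Concentration: 30 µM. Direction is inferred from retests: higher values go with stronger inhibition. Size under these conditions: about 69,000 compounds, about 31 of them at 50% or above in at least one test.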
CoaBC: 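Coenzyme A biosynthesis protein CoaBC, Mycobacterium tuberculosis (UniProt P9WNZ1). Enzyme assay of CoaBC with a phosphate dye (Biomol Green) read at 650 nm. Tested at 30 µM. Higher reads as stronger inhibition, judged from the few compounds that gave an IC50. Most strong results did not repeat in a second test. About 67,000 compounds were tested under these conditions; 0.06% (about 40) showed 50% or more at least once.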

Results are given as percent effect. How 0% and 100% were set is not recorded. Most values in the screen are low, and negative values occur. This is an unselected part of the compounds tested.

* O=C(O)c1cc(-c2ccc3c(c2)OCO3)cc(S(=O)(=O)NC2CC2)c1 : TcHisRS: 0%; CoaBC: -2.571%
* O=C1CSC(c2ccc(Cl)cc2Cl)c2c(n(C3CCOCC3)[nH]c2=O)N1 (stereo not drawn) : TcHisRS: 0.5848%; CoaBC: 5.051%
* COc1ccccc1CCNC(=O)N1CCCC(c2nncn2C)C1 (stereo not drawn) : TcHisRS: 0%; CoaBC: 12.84%
* Cc1nc2c(c(C)c1CC(=O)Nc1cccc(C#N)c1)c(=O)[nH]n2C : TcHisRS: 2.642%; CoaBC: 4.103%
* O[C@@H]1CN(c2cnc3ccccc3n2)CC[C@H]1c1ccc2c(c1)OCO2 : TcHisRS: 9%; CoaBC: 6.777%
* CC(C)CCc1n[nH]c(C(=O)O)c1I : TcHisRS: 7.216%; CoaBC: -7.075%
* CC(=O)NCCNC(=O)c1cc(Br)c2c(c1)OCCO2 : TcHisRS: 5.747%; CoaBC: 1.599%
* O=C(c1c(O)cc(F)cc1F)N1CCc2cnccc21 : TcHisRS: 9.392%; CoaBC: 4.854%
* CC(Cc1ccc(C(F)(F)F)cc1)C(=O)N1CCCS1(=O)=O (stereo not drawn) : TcHisRS: 6.897%; CoaBC: -13.89%
* CC(C)NC(=O)Nc1ncc(-c2cccnc2)s1 : TcHisRS: 3.876%; CoaBC: 15.83%
* COCCC(=O)N1CC[C@@H](N2CCN(C)CC2)[C@@H]1Cc1ccccc1 : TcHisRS: 2.674%; CoaBC: -20.42%
* Cc1occc1C(=O)N1CCc2c(CNS(C)(=O)=O)cncc2C1 : TcHisRS: 2.857%; CoaBC: 0.8631%
* CCn1cnnc1CNC(=O)N1CCN(c2nc(C)c(C)s2)CC1 : TcHisRS: -2.29%; CoaBC: 0.241%
* COc1ccc(S(=O)(=O)NCCC(=O)NCc2ccoc2)cc1OC : TcHisRS: 3.333%; CoaBC: 6.198%
* c1ccc(N2CCC3(COCCN(Cc4cccs4)C3)C2)nc1 (stereo not drawn) : TcHisRS: 7.212%; CoaBC: 1.882%
* CC(O)CN1CCN(C(=O)c2ccn(-c3cccc(Cl)c3)n2)CC1 (stereo not drawn) : TcHisRS: 2.29%; CoaBC: -2.41%
* CCN(C)C[C@@H]1CN(S(=O)(=O)c2cccc(C#N)c2)C[C@@H]1CO : TcHisRS: 6.358%; CoaBC: 6.198%
* Cn1ccnc1CN1CCN(Cc2ccccc2)[C@@H]2CS(=O)(=O)C[C@@H]21 : TcHisRS: 14.43%; CoaBC: 6.914%
* CCOCC1CN(C(=O)Cc2ccccn2)Cc2cnn(C)c21 (stereo not drawn) : TcHisRS: -27.62%; CoaBC: -0.1233%
* Cn1c2c(ccc1=O)CCN(Cc1ccoc1)CC2 : TcHisRS: 17.09%; CoaBC: 8.885%
* Cc1nc2ccccc2nc1CN1CCCC1c1c(C)nn(C)c1C (stereo not drawn) : TcHisRS: -1.128%; CoaBC: 8.094%
* CN1CC2(CCN(CCOCCO)CC2)CC(c2ccccc2)C1=O (stereo not drawn) : TcHisRS: 13.79%; CoaBC: 2.337%
* N[C@H]1CC[C@@H](n2cc(C(=O)NC3COc4ccccc43)nn2)CC1 (stereo partly drawn) : TcHisRS: 6.438%; CoaBC: 1.555%
* N#Cc1ccc(C(=O)N2CC[C@H]3[C@@H]2CCC(=O)N3c2cccnc2)cc1 : TcHisRS: 4.972%; CoaBC: 10.03%
* Cc1ccc(NC(=O)c2nc3c(s2)CCCN3C(C)C)cn1 : TcHisRS: 8.046%; CoaBC: -5.123%
* Cc1oc(-c2nc(C#N)c(NC(C)C)o2)cc1S(=O)(=O)N1CCCC1 : TcHisRS: 1.754%; CoaBC: 3.283%
* CC(C)(C)C(=O)NS(=O)(=O)c1ccc(C#N)cc1C(F)(F)F : TcHisRS: 0.7519%; CoaBC: 1.305%
* CN1CCN(C2CCN(C(=O)CCC3CCCC3)CC2)CC1 : TcHisRS: 4.762%; CoaBC: 0.3686%
* Cc1cc(NCCNc2ncccc2C)n2nc(C)cc2n1 : TcHisRS: 8.911%; CoaBC: 4.096%
* Cc1nc([C@@H]2C[C@@H]3CCN(C(=O)c4ccsc4)C[C@H]3O2)no1 : TcHisRS: 10.74%; CoaBC: -4.202%
* Cc1cccnc1NCCNc1cc(C(C)C)nc2ccnn12 : TcHisRS: 8.911%; CoaBC: 5.301%
* O=C(Cc1ccsc1)N1CCN(CC2CC2)c2ncccc2C1 : TcHisRS: 4.082%; CoaBC: 1.112%
* CCCc1cc(NC2CCN(Cc3ccccn3)CC2)n2nccc2n1 : TcHisRS: 5.946%; CoaBC: 14.09%
* CCC1=N[C@@]2(CC[C@@H]3CN(CC4CC4)C[C@@H]32)C(=O)N1C : TcHisRS: 2.762%; CoaBC: -6.17%
* CCc1nc(C)c(CC(=O)N2CCC3(CC2)OCCCC3O)c(=O)[nH]1 (stereo not drawn) : TcHisRS: 0.8696%; CoaBC: 4.317%
* O=C(Nc1cccnc1)[C@@H]1C[C@H]2OCC[C@H]2N(Cc2ccsc2)C1 : TcHisRS: -4.918%; CoaBC: -0.1287%